From article PMC12216677, “Structural dynamics of IDR interactions in human SFPQ and implications for liquid–liquid phase separation” (Acta Crystallographica Section D: Structural Biology, 2025)
These are yes or no findings as the source states them, for the method shown. Some results given as binding are weak or reduced against the parent protein; the word gives no strength.

Biological target: T1, full-length SFPQ (splicing factor proline- and glutamine-rich) (Homo sapiens), P23246
T1 chain: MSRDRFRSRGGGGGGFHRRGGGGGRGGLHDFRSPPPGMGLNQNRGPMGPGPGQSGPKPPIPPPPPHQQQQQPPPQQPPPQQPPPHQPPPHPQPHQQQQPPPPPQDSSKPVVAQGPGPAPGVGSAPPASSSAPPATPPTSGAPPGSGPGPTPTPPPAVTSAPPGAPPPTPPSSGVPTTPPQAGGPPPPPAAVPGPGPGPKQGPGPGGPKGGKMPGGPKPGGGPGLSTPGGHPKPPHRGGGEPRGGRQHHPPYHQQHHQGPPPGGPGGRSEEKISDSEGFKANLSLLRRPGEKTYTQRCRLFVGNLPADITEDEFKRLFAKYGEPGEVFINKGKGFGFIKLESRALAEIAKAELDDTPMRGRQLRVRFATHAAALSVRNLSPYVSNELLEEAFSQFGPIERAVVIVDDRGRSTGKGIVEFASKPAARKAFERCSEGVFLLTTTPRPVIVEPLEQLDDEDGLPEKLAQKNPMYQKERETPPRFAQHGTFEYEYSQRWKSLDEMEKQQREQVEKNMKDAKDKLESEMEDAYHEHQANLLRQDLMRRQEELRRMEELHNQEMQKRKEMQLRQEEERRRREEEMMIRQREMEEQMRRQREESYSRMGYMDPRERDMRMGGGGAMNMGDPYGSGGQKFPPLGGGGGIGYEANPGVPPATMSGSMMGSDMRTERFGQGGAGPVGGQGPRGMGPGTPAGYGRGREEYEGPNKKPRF
Assay: contrast-matching SANS; static cell, 1:20 hSFPQ:dSFPQ concentrated to 48 mg/ml, dialysed into 150 mM KCl, 0.075% glycerol, 20 mM HEPES, 0.5 mM DTT pH 7.4 in 95% D2O (match-point of dSFPQ); only the protiated chains scatter; both purified
Details: remark: other sources report otherwise

binding: binds
B1: full-length SFPQ (splicing factor proline- and glutamine-rich), P23246 1-707 (natural protein)
chain: T1 chain
